{
  "source": "paper PMC12717039",
  "about": "“Novel mutations in the RECQL4 gene affect its helicase functions, interactions with the BLM helicase and chemotherapeutics-induced cell death”",
  "key": {"[1]": {"molecular_target": "T1, RECQL4 427-1116 WT (Homo sapiens) (UniProt O94761)", "T1 sequence (looked up)": "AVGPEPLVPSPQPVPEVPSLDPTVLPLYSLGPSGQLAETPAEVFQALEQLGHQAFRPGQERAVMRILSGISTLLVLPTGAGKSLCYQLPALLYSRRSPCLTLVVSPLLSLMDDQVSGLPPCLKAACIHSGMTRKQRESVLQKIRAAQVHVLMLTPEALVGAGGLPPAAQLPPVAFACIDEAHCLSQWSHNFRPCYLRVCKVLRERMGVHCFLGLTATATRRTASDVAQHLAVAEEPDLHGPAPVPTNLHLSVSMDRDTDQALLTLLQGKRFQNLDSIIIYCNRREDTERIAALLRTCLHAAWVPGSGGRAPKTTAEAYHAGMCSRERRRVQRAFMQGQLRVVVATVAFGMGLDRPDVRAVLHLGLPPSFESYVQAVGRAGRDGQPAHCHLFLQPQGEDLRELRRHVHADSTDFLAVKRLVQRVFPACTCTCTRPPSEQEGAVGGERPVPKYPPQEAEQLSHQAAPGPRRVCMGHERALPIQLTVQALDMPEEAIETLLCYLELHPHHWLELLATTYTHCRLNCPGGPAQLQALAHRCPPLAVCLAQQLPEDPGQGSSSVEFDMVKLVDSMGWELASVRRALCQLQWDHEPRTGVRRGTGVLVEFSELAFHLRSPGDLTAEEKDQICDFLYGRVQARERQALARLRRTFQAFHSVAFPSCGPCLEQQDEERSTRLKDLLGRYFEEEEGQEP", "test": "EMSA", "conditions": "5 mM Mg2+, 0.1-10 uM protein, 100 nM DNA; Buffer D: 10 mM HEPES pH 7.5, 50 mM NaCl, 5 mM MgCl2, 2 mM DTT (EMSA, 100 nM Cy3-DNA, 6% native PAGE); temperature not stated; recombinant protein; residues 427-1116; protein details: GST tag removed by TEV"}, "[2]": {"molecular_target": "T2, RECQL4 427-1116 P532S (Homo sapiens) (UniProt O94761)", "T2 sequence (looked up)": "T1 sequence (looked up) with P106S", "test": "EMSA", "conditions": "5 mM Mg2+, 0.1-10 uM protein, 100 nM DNA; Buffer D: 10 mM HEPES pH 7.5, 50 mM NaCl, 5 mM MgCl2, 2 mM DTT (EMSA, 100 nM Cy3-DNA, 6% native PAGE); temperature not stated; recombinant protein; residues 427-1116; protein details: GST tag removed by TEV"}, "[3]": {"molecular_target": "T3, RECQL4 427-1116 R766Q (Homo sapiens) (UniProt O94761)", "T3 sequence (looked up)": "T1 sequence (looked up) with R340Q", "test": "EMSA", "conditions": "5 mM Mg2+, 0.1-10 uM protein, 100 nM DNA; Buffer D: 10 mM HEPES pH 7.5, 50 mM NaCl, 5 mM MgCl2, 2 mM DTT (EMSA, 100 nM Cy3-DNA, 6% native PAGE); temperature not stated; recombinant protein; residues 427-1116; protein details: GST tag removed by TEV"}, "[4]": {"molecular_target": "T3, RECQL4 427-1116 R766Q (Homo sapiens)", "test": "MST", "conditions": "5 mM Mg2+, no ATP mentioned, Kd only in figure; Buffer D: 10 mM HEPES pH 7.5, 50 mM NaCl, 5 mM MgCl2, 2 mM DTT (EMSA, 100 nM Cy3-DNA, 6% native PAGE); MST with 10 nM Cy5-DNA, buffer not restated; temperature not stated; recombinant protein; residues 427-1116; protein details: GST tag removed by TEV"}},
  "note": "Residue numbers refer to the chain shown, from its start. For some of these results: A weaker result is weaker than the reference pair of the same experiment. Tags and fusion partners may be left off the protein sequences shown. For some of these results: For at least one entry, the source does not settle the construct or the ends of the probe. For some of these results: At least one verdict was read from the data and is not stated in words by the source.",
  "data": [
    {"sequence": "CCATTCCACCCTCTATTTTTTTTTTTTTTT / TAGAGGGTGGAATGG [OH-Cy3/CQ dsDNA with 3' ss overhang (EMSA)]", "values": [
      {"measurement": "binding result", "setting": "[1]", "value": "binds"},
      {"measurement": "binding result", "setting": "[2]", "value": "binds"},
      {"measurement": "binding result", "setting": "[3]", "value": "binds more weakly"}
    ]},
    {"sequence": "CCATTCCACCCTCTATTTTTTTTTTTTTTT / TAGAGGGTGGAATGG [OH-Cy5/CQ dsDNA with 3' ss overhang (MST)]", "values": [
      {"measurement": "binding result", "setting": "[4]", "value": "binds more weakly"}
    ]}
  ]
}
